Results are given in words; binding and its absence hold for the method and conditions named. Binding seen in cells or lysates may run through a third protein. Some results given as binding are weak or reduced against the parent protein; the word gives no strength. Sequences can lack the tags named with a protein.
Key:
[1] = biological target: SARS-CoV-2 NSP3 (Gluc2-tagged) (SARS-CoV-2) (UniProt P0DTD1); test: split reporter
[2] = biological target: SARS-CoV-2 nonstructural protein 6 (Gluc2-tagged) (SARS-CoV-2) (UniProt P0DTD1); test: split reporter

B1: Gluc1-PIP4K2C (enzyme, UniProt Q8TBX8 1-421)
chain: MASSSVPPATVSAATAGPGPGFGFASKTKKKHFVQQKVKVFRAADPLVGVFLWGVAHSINELSQVPPPVMLLPDDFKASSKIKVNNHLFHRENLPSHFKFKEYCPQVFRNLRDRFGIDDQDYLVSLTRNPPSESEGSDGRFLISYDRTLVIKEVSSEDIADMHSNLSNYHQYIVKCHGNTLLPQFLGMYRVSVDNEDSYMLVMRNMFSHRLPVHRKYDLKGSLVSREASDKEKVKELPTLKDMDFLNKNQKVYIGEEEKKIFLEKLKRDVEFLVQLKIMDYSLLLGIHDIIRGSEPEEEAPVREDESEVDGDCSLTGPPALVGSYGTSPEGIGGYIHSHRPLGPGEFESFIDVYAIRSAEGAPQKEVYFMGLIDILTQYDAKKKAAHAAKTVKHGAGAEISTVHPEQYAKRFLDFITNIFA
For B1, the binding [1] was “binds” and the binding [2] was “binds”.

Reference: publication doi:10.1101/2024.04.15.589676
